# In paper PMC5302884:
# Results are given in words; binding and its absence hold for the method and conditions named. Binding seen in cells or lysates may run through a third protein. Some results given as binding are weak or reduced against the parent protein; the word gives no strength.
# B1: Bak G4C (protein, UniProt Q16611 1-211)
# chain: MASCQGPGPPRQESGEPALPSASEEQVAQDTEEVFRSYVFYRHQQEQEAEGVAAPADPEMVTLPLQPSSTMGQVGRQLAIIGDDINRRYDSEFQTMLQHLQPTAENAYEYFTKIATSLFESGINWGRVVALLGFGYRLALHVYQHGLTGFLGQVTRFVVDFMLHHSIARWIAQRGGWVAALNLGNGPILNVLVVLGVVLLGQFVVRRFFKS
# B2: Bak S23C (protein, UniProt Q16611 1-211)
# chain: MASGQGPGPPRQESGEPALPSACEEQVAQDTEEVFRSYVFYRHQQEQEAEGVAAPADPEMVTLPLQPSSTMGQVGRQLAIIGDDINRRYDSEFQTMLQHLQPTAENAYEYFTKIATSLFESGINWGRVVALLGFGYRLALHVYQHGLTGFLGQVTRFVVDFMLHHSIARWIAQRGGWVAALNLGNGPILNVLVVLGVVLLGQFVVRRFFKS
# B3: Bak G51C (protein, UniProt Q16611 1-211)
# chain: MASGQGPGPPRQESGEPALPSASEEQVAQDTEEVFRSYVFYRHQQEQEAECVAAPADPEMVTLPLQPSSTMGQVGRQLAIIGDDINRRYDSEFQTMLQHLQPTAENAYEYFTKIATSLFESGINWGRVVALLGFGYRLALHVYQHGLTGFLGQVTRFVVDFMLHHSIARWIAQRGGWVAALNLGNGPILNVLVVLGVVLLGQFVVRRFFKS
# B4: Bak D57C (protein, UniProt Q16611 1-211)
# chain: MASGQGPGPPRQESGEPALPSASEEQVAQDTEEVFRSYVFYRHQQEQEAEGVAAPACPEMVTLPLQPSSTMGQVGRQLAIIGDDINRRYDSEFQTMLQHLQPTAENAYEYFTKIATSLFESGINWGRVVALLGFGYRLALHVYQHGLTGFLGQVTRFVVDFMLHHSIARWIAQRGGWVAALNLGNGPILNVLVVLGVVLLGQFVVRRFFKS
# B5: Bak P58C (protein, UniProt Q16611 1-211)
# chain: MASGQGPGPPRQESGEPALPSASEEQVAQDTEEVFRSYVFYRHQQEQEAEGVAAPADCEMVTLPLQPSSTMGQVGRQLAIIGDDINRRYDSEFQTMLQHLQPTAENAYEYFTKIATSLFESGINWGRVVALLGFGYRLALHVYQHGLTGFLGQVTRFVVDFMLHHSIARWIAQRGGWVAALNLGNGPILNVLVVLGVVLLGQFVVRRFFKS
# B6: Bak T62C (protein, UniProt Q16611 1-211)
# chain: MASGQGPGPPRQESGEPALPSASEEQVAQDTEEVFRSYVFYRHQQEQEAEGVAAPADPEMVCLPLQPSSTMGQVGRQLAIIGDDINRRYDSEFQTMLQHLQPTAENAYEYFTKIATSLFESGINWGRVVALLGFGYRLALHVYQHGLTGFLGQVTRFVVDFMLHHSIARWIAQRGGWVAALNLGNGPILNVLVVLGVVLLGQFVVRRFFKS
# B7: Bak Q66C (protein, UniProt Q16611 1-211)
# chain: MASGQGPGPPRQESGEPALPSASEEQVAQDTEEVFRSYVFYRHQQEQEAEGVAAPADPEMVTLPLCPSSTMGQVGRQLAIIGDDINRRYDSEFQTMLQHLQPTAENAYEYFTKIATSLFESGINWGRVVALLGFGYRLALHVYQHGLTGFLGQVTRFVVDFMLHHSIARWIAQRGGWVAALNLGNGPILNVLVVLGVVLLGQFVVRRFFKS
# B8: Bak S68C (protein, UniProt Q16611 1-211)
# chain: MASGQGPGPPRQESGEPALPSASEEQVAQDTEEVFRSYVFYRHQQEQEAEGVAAPADPEMVTLPLQPCSTMGQVGRQLAIIGDDINRRYDSEFQTMLQHLQPTAENAYEYFTKIATSLFESGINWGRVVALLGFGYRLALHVYQHGLTGFLGQVTRFVVDFMLHHSIARWIAQRGGWVAALNLGNGPILNVLVVLGVVLLGQFVVRRFFKS
# B9: Bak S69C (protein, UniProt Q16611 1-211)
# chain: MASGQGPGPPRQESGEPALPSASEEQVAQDTEEVFRSYVFYRHQQEQEAEGVAAPADPEMVTLPLQPSCTMGQVGRQLAIIGDDINRRYDSEFQTMLQHLQPTAENAYEYFTKIATSLFESGINWGRVVALLGFGYRLALHVYQHGLTGFLGQVTRFVVDFMLHHSIARWIAQRGGWVAALNLGNGPILNVLVVLGVVLLGQFVVRRFFKS
# B10: Bak G186C (protein, UniProt Q16611 1-211)
# chain: MASGQGPGPPRQESGEPALPSASEEQVAQDTEEVFRSYVFYRHQQEQEAEGVAAPADPEMVTLPLQPSSTMGQVGRQLAIIGDDINRRYDSEFQTMLQHLQPTAENAYEYFTKIATSLFESGINWGRVVALLGFGYRLALHVYQHGLTGFLGQVTRFVVDFMLHHSIARWIAQRGGWVAALNLGNCPILNVLVVLGVVLLGQFVVRRFFKS
# B11: Bak I188C (protein, UniProt Q16611 1-211)
# chain: MASGQGPGPPRQESGEPALPSASEEQVAQDTEEVFRSYVFYRHQQEQEAEGVAAPADPEMVTLPLQPSSTMGQVGRQLAIIGDDINRRYDSEFQTMLQHLQPTAENAYEYFTKIATSLFESGINWGRVVALLGFGYRLALHVYQHGLTGFLGQVTRFVVDFMLHHSIARWIAQRGGWVAALNLGNGPCLNVLVVLGVVLLGQFVVRRFFKS
# B12: Bak N190C (protein, UniProt Q16611 1-211)
# chain: MASGQGPGPPRQESGEPALPSASEEQVAQDTEEVFRSYVFYRHQQEQEAEGVAAPADPEMVTLPLQPSSTMGQVGRQLAIIGDDINRRYDSEFQTMLQHLQPTAENAYEYFTKIATSLFESGINWGRVVALLGFGYRLALHVYQHGLTGFLGQVTRFVVDFMLHHSIARWIAQRGGWVAALNLGNGPILCVLVVLGVVLLGQFVVRRFFKS
# B13: Bak H99C (protein, UniProt Q16611 1-211)
# chain: MASGQGPGPPRQESGEPALPSASEEQVAQDTEEVFRSYVFYRHQQEQEAEGVAAPADPEMVTLPLQPSSTMGQVGRQLAIIGDDINRRYDSEFQTMLQCLQPTAENAYEYFTKIATSLFESGINWGRVVALLGFGYRLALHVYQHGLTGFLGQVTRFVVDFMLHHSIARWIAQRGGWVAALNLGNGPILNVLVVLGVVLLGQFVVRRFFKS
# Assays:
# Bak G4C (human) [1] = target: Bak G4C (human) (UniProt Q16611); assay: cross-linking; membrane fractions incubated with tBid (100 nM, 30 min, 30°C), pre-chilled, CuPhe on ice 15 min; non-reducing SDS-PAGE, immunoblot for Bak; 2x complexes
# Bak G4C (human) [2] = target: Bak G4C (human) (UniProt Q16611); assay: cross-linking + native gel or EMSA; membrane fractions incubated with tBid, CuPhe on ice, then solubilised in 1% digitonin and run on blue native PAGE; 4x and greater complexes mean linkage between dimers (dimers to higher order complexes)
# Bak S23C (human) [3] = target: Bak S23C (human) (UniProt Q16611); assay: cross-linking; membrane fractions incubated with tBid (100 nM, 30 min, 30°C), pre-chilled, CuPhe on ice 15 min; non-reducing SDS-PAGE, immunoblot for Bak; 2x complexes
# Bak S23C (human) [4] = target: Bak S23C (human) (UniProt Q16611); assay: cross-linking + native gel or EMSA; membrane fractions incubated with tBid, CuPhe on ice, then solubilised in 1% digitonin and run on blue native PAGE; 4x and greater complexes mean linkage between dimers (dimers to higher order complexes)
# Bak G51C (human) [5] = target: Bak G51C (human) (UniProt Q16611); assay: cross-linking; membrane fractions incubated with tBid (100 nM, 30 min, 30°C), pre-chilled, CuPhe on ice 15 min; non-reducing SDS-PAGE, immunoblot for Bak; 2x complexes
# Bak G51C (human) [6] = target: Bak G51C (human) (UniProt Q16611); assay: cross-linking + native gel or EMSA; membrane fractions incubated with tBid, CuPhe on ice, then solubilised in 1% digitonin and run on blue native PAGE; 4x and greater complexes mean linkage between dimers (dimers to higher order complexes)
# Bak D57C (human) [7] = target: Bak D57C (human) (UniProt Q16611); assay: cross-linking; membrane fractions incubated with tBid (100 nM, 30 min, 30°C), pre-chilled, CuPhe on ice 15 min; non-reducing SDS-PAGE, immunoblot for Bak; 2x complexes
# Bak D57C (human) [8] = target: Bak D57C (human) (UniProt Q16611); assay: cross-linking + native gel or EMSA; membrane fractions incubated with tBid, CuPhe on ice, then solubilised in 1% digitonin and run on blue native PAGE; 4x and greater complexes mean linkage between dimers (dimers to higher order complexes)
# Bak P58C (human) [9] = target: Bak P58C (human) (UniProt Q16611); assay: cross-linking; membrane fractions incubated with tBid (100 nM, 30 min, 30°C), pre-chilled, CuPhe on ice 15 min; non-reducing SDS-PAGE, immunoblot for Bak; 2x complexes
# Bak P58C (human) [10] = target: Bak P58C (human) (UniProt Q16611); assay: cross-linking + native gel or EMSA; membrane fractions incubated with tBid, CuPhe on ice, then solubilised in 1% digitonin and run on blue native PAGE; 4x and greater complexes mean linkage between dimers (dimers to higher order complexes)
# Bak T62C (human) [11] = target: Bak T62C (human) (UniProt Q16611); assay: cross-linking; membrane fractions incubated with tBid (100 nM, 30 min, 30°C), pre-chilled, CuPhe on ice 15 min; non-reducing SDS-PAGE, immunoblot for Bak; 2x complexes
# Bak T62C (human) [12] = target: Bak T62C (human) (UniProt Q16611); assay: cross-linking + native gel or EMSA; membrane fractions incubated with tBid, CuPhe on ice, then solubilised in 1% digitonin and run on blue native PAGE; 4x and greater complexes mean linkage between dimers (dimers to higher order complexes)
# Bak Q66C (human) [13] = target: Bak Q66C (human) (UniProt Q16611); assay: cross-linking; membrane fractions incubated with tBid (100 nM, 30 min, 30°C), pre-chilled, CuPhe on ice 15 min; non-reducing SDS-PAGE, immunoblot for Bak; 2x complexes
# Bak Q66C (human) [14] = target: Bak Q66C (human) (UniProt Q16611); assay: cross-linking + native gel or EMSA; membrane fractions incubated with tBid, CuPhe on ice, then solubilised in 1% digitonin and run on blue native PAGE; 4x and greater complexes mean linkage between dimers (dimers to higher order complexes)
# Bak S68C (human) [15] = target: Bak S68C (human) (UniProt Q16611); assay: cross-linking; membrane fractions incubated with tBid (100 nM, 30 min, 30°C), pre-chilled, CuPhe on ice 15 min; non-reducing SDS-PAGE, immunoblot for Bak; 2x complexes
# Bak S68C (human) [16] = target: Bak S68C (human) (UniProt Q16611); assay: cross-linking + native gel or EMSA; membrane fractions incubated with tBid, CuPhe on ice, then solubilised in 1% digitonin and run on blue native PAGE; 4x and greater complexes mean linkage between dimers (dimers to higher order complexes)
# Bak S69C (human) [17] = target: Bak S69C (human) (UniProt Q16611); assay: cross-linking; membrane fractions incubated with tBid (100 nM, 30 min, 30°C), pre-chilled, CuPhe on ice 15 min; non-reducing SDS-PAGE, immunoblot for Bak; 2x complexes
# Bak S69C (human) [18] = target: Bak S69C (human) (UniProt Q16611); assay: cross-linking + native gel or EMSA; membrane fractions incubated with tBid, CuPhe on ice, then solubilised in 1% digitonin and run on blue native PAGE; 4x and greater complexes mean linkage between dimers (dimers to higher order complexes)
# Bak G186C (human) = Bak G186C (human) (UniProt Q16611); assay: cross-linking; membrane fractions incubated with tBid (100 nM, 30 min, 30°C), pre-chilled, CuPhe on ice 15 min; non-reducing SDS-PAGE, immunoblot for Bak; 2x complexes
# Bak I188C (human) = Bak I188C (human) (UniProt Q16611); assay: as above
# Bak N190C (human) = Bak N190C (human) (UniProt Q16611); assay: as above
# Bak H99C (human) = Bak H99C (human) (UniProt Q16611); assay: cross-linking + native gel or EMSA; membrane fractions incubated with tBid, CuPhe on ice, then solubilised in 1% digitonin and run on blue native PAGE; 4x and greater complexes mean linkage between dimers (dimers to higher order complexes)
binder,measurement,setting,value
B1,binding,Bak G4C (human) [1],binds
same,binding,Bak G4C (human) [2],binds
B2,binding,Bak S23C (human) [3],binds
same,binding,Bak S23C (human) [4],binds
B3,binding,Bak G51C (human) [5],binds
same,binding,Bak G51C (human) [6],binds
B4,binding,Bak D57C (human) [7],binds
same,binding,Bak D57C (human) [8],binds
B5,binding,Bak P58C (human) [9],binds
same,binding,Bak P58C (human) [10],binds
B6,binding,Bak T62C (human) [11],binds
same,binding,Bak T62C (human) [12],binds
B7,binding,Bak Q66C (human) [13],binds
same,binding,Bak Q66C (human) [14],binds
B8,binding,Bak S68C (human) [15],binds
same,binding,Bak S68C (human) [16],binds
B9,binding,Bak S69C (human) [17],binds
same,binding,Bak S69C (human) [18],binds
B10,binding,Bak G186C (human),binds
B11,binding,Bak I188C (human),binds
B12,binding,Bak N190C (human),binds
B13,binding,Bak H99C (human),binds
